The test can be described thus: qHTS Assay to Find Inhibitors of Chronic Active B-Cell Receptor Signaling. Particulars: ABC-DLBCL IkBa-CBG/CBR reporter, luminescence ratio (green luciferase fused to IkBa over red control in TMD8 lymphoma cells), 4 h. Summed up: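 Cell line TMD8 (human ABC DLBCL), stably expressing tet-inducible CBG68-IkBa fusion and CBR; IMDM/0.5% FBS; cpd up to 46 uM; dox induction, 4 h, 37C/5% CO2; dual luminescence; green/red ratio; MG132 control.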
Background: In qHTS, concentration-response curves come from the screen itself.

Where [1] appears, read: measured here: CBR red luminescence, cell number.
The mark [2] stands for this setting: measured here: IkBa-CBG green luminescence.

The other results are listed elsewhere or left out. These are further read-outs of the screen, such as a control signal, another cell line or another target. No call is given for them. Compounds called inactive in the main read-out are mostly missing here. Words in brackets tell the shape of the fitted curve; partial curves, single points and poor fits give uncertain potencies.

Broadly, the AC50 is the concentration at which the activity in the assay is half-maximal. Take `NS(=O)(=O)c1ccc(N=Cc2c(O)n(-c3nccs3)c(=O)c3ccccc23)cc1`: under setting [1], the AC50 is 2.82 µM [falling, partial curve, poor fit]. As for `CCN1/C(=C\c2ccc3ccccc3[n+]2CC)Sc2cc(C)ccc21`, the AC50 reads like this: under setting [1], 35.5 µM [falling, single point]; under setting [2], 17.8 µM [rising, single point]. As to `COc1ccc(C(=O)N/N=C\c2ccc(OC)c(COc3ccccc3Br)c2)c(OC)c1`, the AC50 under setting [1] was 2 µM [falling, full curve].

In the case of `COCCn1c(SC(C)C(=O)NC2CC2)nnc1-c1cccc(C)c1` (stereo unspecified), the AC50 under setting [1] was 6.51 µM [rising, full curve, poor fit]. Same read-out and setting: under `Cc1ccc(C(=O)NNC(=O)Cc2csc(-c3csc(C)n3)n2)cc1` stands 0.1 µM [rising, full curve, poor fit].

On to `CCc1ccc(Cn2nnc(C(=O)Nc3cccc(C)c3)c2N)cc1`, for which the AC50 under setting [1] was 29.1 µM [rising, partial curve, poor fit]. In the case of `Cc1c(OCC(=O)NCc2ccncc2)ccc2c3c(c(=O)oc12)CCCC3`, the AC50 under setting [1] is 0.562 µM [rising, full curve, poor fit]. Regarding `Cc1nc(C(=O)N2CCCC(C(=O)c3cccc(OC(C)C)c3)C2)cs1` (stereo unspecified), the AC50 under setting [1] is 2.51 µM [rising, partial curve, poor fit].

`CC(Nc1nc(-c2cccnc2)nc2ccccc12)c1ccc(F)cc1` (stereo unspecified): the AC50 under setting [1] is 10 µM [rising, partial curve, poor fit]. Same read-out and setting: under `Cc1cc(C)c2cccc(NC(=S)NC(=O)c3ccccc3)c2n1` stands 0.112 µM [falling, full curve, poor fit]; under `O=C(NCC1CCCO1)c1cc2cc(Cl)ccc2[nH]1` (stereo unspecified), 0.794 µM [rising, full curve]; under `COc1cccc(NC(=O)CCN2CCN(C)CC2)c1`, 1.03 µM [rising, full curve]. With `Cc1ccc(N2C(=O)C(Cl)=C(NCc3ccccc3)C2=O)c(C)c1`, the AC50 under setting [1] is 6.31 µM [rising, single point]. In the case of `C/C(=N\Nc1nc2ccccc2[nH]1)c1ccc2c(c1)OCCO2`, the AC50 under setting [1] is 8.91 µM [falling, partial curve, poor fit]. With `CC(C)(CO)NS(=O)(=O)c1ccc2c(c1)Cc1cc(S(=O)(=O)NC(C)(C)CO)ccc1-2`, the AC50 under setting [1] was 31.6 µM [rising, single point]. For `COC(=O)c1ccc2nc(NC(=O)C3CC3)sc2c1`, the AC50 under setting [1] was 35.5 µM [falling, partial curve, poor fit]. In the case of `CN=C1c2cc3c(Br)c(OC)ccc3n2CCN1C`, under setting [1], the AC50 is 20.6 µM [rising, single point]. For the compound `Cc1cc(=O)[nH]c(SCC(=O)NCC2CCCCC2)c1C#N`, the AC50 under setting [1] is 11.2 µM [rising, single point].

On to `CC(C)=CCC/C(C)=C/CNC(=O)C[C@H]1C[C@H](C(=O)N(C(C)C)C(C)C)[C@@]2(C)c3[nH]c4cc(CCC(=O)N(C)C)ccc4c3CCN2C1=O`, for which the AC50 under setting [1] was 32.6 µM [falling, single point]. As for `COc1cccc2c1O/C(=N\O)C(C(=O)Nc1ccc(C)cc1)C2` (stereo unspecified), under setting [1], the AC50 is 14.1 µM [falling, partial curve]. For the compound `CC(=O)Nc1ccc(NC(=O)c2cc(-c3ccc(C)cc3O)n[nH]2)cc1`, under setting [1], the half-maximal activity concentration (AC50) was 15.8 µM [falling, partial curve, poor fit]. `COc1ccc(N2CCN(c3ccc(C(=O)O)cc3[N+](=O)[O-])CC2)cc1`: the AC50 under setting [1] was 11.2 µM [falling, partial curve]. Turning to `COc1ccc(C(CNC(=O)C(C)Oc2ccc(Br)cc2)N2CCCCC2)cc1` (stereo unspecified), the AC50 under setting [2] was 32.6 µM [falling, partial curve, poor fit].

`Nc1ncnc2c1ncn2[C@@H]1O[C@H](CNCc2ccc(-c3cc(C(F)(F)F)ccc3Cl)o2)[C@@H](O)[C@H]1O`: under setting [2], the AC50 is 8.2 µM [falling, partial curve].

With `CC(C)C(NCc1c(Cl)cccc1Cl)C(=O)O` (stereo unspecified), the AC50 under setting [1] is 3.55 µM [falling, single point].

With `O=C(NC(=S)N1CCCC1)c1ccccc1F`, under setting [1], the AC50 was 6.51 µM [rising, single point]. For the compound `O=C(NCC(=O)N1CCC(Cc2ccccc2)CC1)c1ccc(Cl)cc1`, under setting [1], the AC50 is 35.5 µM [falling, single point]. `N#C/C(=N\Nc1ccccc1)C(N)=S`: the AC50 under setting [1] is 25.1 µM [falling, single point].

Take `COc1ccc(C2CC(c3cccs3)=Nc3ccccc3S2)cc1OC` (stereo unspecified): under setting [1], the AC50 is 0.184 µM [rising, full curve]. As to `Cc1ccc(CC(=O)Nc2ncc([N+](=O)[O-])s2)cc1`, the AC50 under setting [1] was 11.2 µM [falling, partial curve]. Same read-out and setting: under `O=C(N/N=C/c1ccc(-c2ccc(S(=O)(=O)Nc3ncccn3)cc2)o1)c1cc2ccccc2cc1O` stands 8.2 µM [falling, partial curve, poor fit]; under `O=C(Nc1ccc2oc(-c3ccc4ccccc4c3)nc2c1)c1cccs1`, 0.651 µM [rising, full curve, poor fit]; under `CCS(=O)(=O)c1ncc(Cl)c(C(=O)Nc2ccc(S(=O)(=O)N(C)c3ccccc3)cc2)n1`, 6.31 µM [falling, full curve]. Still for that read-out and setting: with `O=C(COc1ccc(Cl)cc1)N1CCCCC1` the figure was 6.51 µM [rising, single point]. Turning to `CCOCc1nnc(NC(=O)CCc2ccccc2)s1`, under setting [1], the AC50 is 1.84 µM [rising, full curve, poor fit].

In the case of `CC(=O)N1CCN(CCS(=O)(=O)c2cc(Cl)ccc2Cl)CC1`, under setting [1], the AC50 was 18.4 µM [falling, partial curve, poor fit].

On to `CC(C)NCCCOc1ccc(Cl)cc1Br`, for which the AC50 under setting [1] was 10 µM [falling, partial curve]. Consider `CCOC(=O)c1c(-c2cccs2)csc1NC(C)=O`, for which the AC50 under setting [1] was 11.6 µM [rising, partial curve]. In the case of `O=C(Cn1cc(SCc2ccccc2Cl)c2ccccc21)N1CCOCC1`, the concentration at half-maximal activity (AC50) under setting [1] is 29.1 µM [falling, single point]. With `C/C(CC(=O)Nc1cccnc1)=N\NC(=O)C(C)Oc1ccc(Cl)cc1Cl` (stereo unspecified), under setting [1], the AC50 is 14.1 µM [falling, partial curve, poor fit]. Take `Cn1nc(C(C)(C)C)c(NC(=O)c2ccc(F)cc2)c1C(C)(C)C`: the AC50 under setting [1] was 35.5 µM [rising, single point]. Take `COc1ccccc1NC(=O)/C=C/c1ccc2c(c1)OCO2`: under setting [1], the half-maximal activity concentration (AC50) is 10 µM [falling, partial curve]. On the same count and under the same terms, with `CC(=O)Nc1ccc(S(=O)(=O)N2CCN(C(=O)N3CCOCC3)CC2)cc1` the figure was 0.731 µM [falling, partial curve, poor fit]; with `CCOC(=O)Cc1csc(NC(=O)CSc2nc3cccnc3n2CC)n1`, 1.58 µM [falling, partial curve, poor fit]. For `Cc1ccc(-c2nnc(NC(=O)c3ccco3)s2)cc1`, the AC50 under setting [1] was 2.51 µM [falling, full curve]. For the compound `Nc1nc(CCl)nc(N(c2ccccc2)c2ccccc2)n1`, the AC50 under setting [1] is 7.94 µM [falling, partial curve, poor fit].

Take `O=C(c1ccc2c(c1)OCO2)[C@@H]1[C@@H]2C(=O)N(C3CCCCC3)C(=O)[C@@H]2C2c3ccccc3C=CN21` (stereo partly specified): the concentration at half-maximal activity (AC50) under setting [1] is 7.94 µM [falling, partial curve].

As for `Fc1ccccc1N1CCN(c2nc3ccccc3n3nnnc23)CC1`, under setting [1], the AC50 is 7.31 µM [falling, partial curve, poor fit]. As for `Cc1c(C(=O)N(CC(C)C)c2c(N)n(Cc3ccccc3)c(=O)[nH]c2=O)sc2nc3n(c(=O)c12)CCC3`, under setting [1], the AC50 is 0.92 µM [rising, full curve, poor fit]. As to `O=C(/C=C/c1ccc(Cl)c(Cl)c1)N1CCc2ccccc21`, the concentration at half-maximal activity (AC50) under setting [1] is 18.4 µM [rising, single point]. Same read-out and setting: under `O=C(Cc1ccccc1)NCC(=O)OCC(=O)c1ccc([N+](=O)[O-])cc1` stands 18.4 µM [falling, partial curve, poor fit]; under `CN1CCN(C(=O)c2ccc(COc3ccc(Cl)cc3Cl)cc2)CC1`, 32.6 µM [falling, single point]. As to `COc1ccc(-c2csc(N(CC3CCCO3)C(=O)c3ccco3)n2)cc1` (stereo unspecified), the AC50 under setting [1] is 16.4 µM [falling, single point]. As to `CC(C)Oc1ccc(/C=N/NC(N)=S)cc1`, the AC50 reads like this: under setting [1], 29.1 µM [rising, single point]; under setting [2], 32.6 µM [falling, partial curve, poor fit].

On to `CCOC(=O)CSc1nnc(-c2cccc(Cl)c2)n1CC`, for which, under setting [1], the AC50 is 2.82 µM [rising, full curve, poor fit].

Consider `CCC(=O)Nc1cc(-c2nn3c(C)nnc3s2)ccc1C`, for which the AC50 under setting [1] was 11.2 µM [rising, partial curve]. For `C/C(=N\NC(=S)NC1CCCCC1)c1ccc(C)o1`, the AC50 by setting is: under setting [1], 2.51 µM [rising, partial curve, poor fit]; under setting [2], 12.6 µM [falling, partial curve]. In the case of `CCNC(=O)c1c(O)c2cccc3c2n(c1=O)CC3`, under setting [1], the AC50 was 32.6 µM [rising, single point]. As for `COc1ccc(C(=O)NN/C(C)=C/C(=O)C(F)(F)C(F)(F)C(F)(F)F)cc1`, the AC50 under setting [1] was 2.06 µM [falling, full curve]. Turning to `CN1C(=O)c2ccccc2C(C(=O)O)C1c1cccc(Cl)c1` (stereo unspecified), under setting [1], the AC50 was 2.06 µM [rising, partial curve, poor fit]. As to `COc1cccc(C(=O)NC(=S)Nc2ccc(N(C)C)cc2)c1`, the AC50 under setting [1] was 0.164 µM [falling, full curve].

As for `COCc1cc(/C=N\NC(=O)COc2ccccc2)ccc1OC`, the AC50 under setting [1] was 1.46 µM [rising, full curve, poor fit].

For the compound `O=C(Nc1nc2cc3c(cc2s1)OCCO3)c1ccncc1`, the AC50 under setting [1] was 7.94 µM [falling, partial curve, poor fit].

The values are drawn from PubChem BioAssay AID493014 (National Center for Advancing Translational Sciences (NCATS), 2011).
